The source of these data is patent US7238775B2 (The Salk Institute for Biological Studies, priority 2002, dated 2007).

Some peptides are written in HELM: one residue between dots, names in brackets for other building blocks, links after the first $.

The first series is described as follows: general procedure: Boc solid-phase peptide synthesis; chloromethylated resin or hydroxymethylated resin. The note with it: late stage modification step, CZE.
For “PEPTIDE1{[3ITyr].C.F.A.W.K.T.F.C}$PEPTIDE1,PEPTIDE1,2:R3-9:R3$$$V2.0”, the “final purity (method not given)” value is on record as “about 99%”.

The series is the same for the next values; noted with them: whole synthesis, CZE.
As for “(cyclo)Cbm-Cys-Phe-4Aph-D-Trp-Lys-Thr-Phe-Cys-OH”, the “final purity (method not given)” value is listed as “about 98%”.

Regarding “(cyclo)Cbm-Cys-Phe-4Aph-D-Trp-Lys-Thr-Tyr-Cys-OH”, the “final purity (method not given)” value is “about 98%”.

Regarding “(cyclo)Cbm-Cys-Phe-4Aph-Trp-Lys-Thr-Phe-Cys-OH”, the “final purity (method not given)” value is listed as “about 92%”.

For “(cyclo)Cbm-Cys-Phe-4Aph-Trp-Lys-Thr-Tyr-Cys-OH”, the “final purity (method not given)” value is on record as “about 90%”.

Turning to “(cyclo)Cbm-Tyr-Cys-Phe-4Aph-Trp-Lys-Thr-Phe-Cys-OH”, the “final purity (method not given)” value is given as “about 92%”.

As to “(cyclo)Cbm-Tyr-Cys-Phe-Amp-Trp-Lys-Thr-Phe-Cys-OH”, the “final purity (method not given)” value is given as “about 91%”.

Consider “(cyclo)Cys-Phe-Ala-D-Trp-Lys-Thr-Ala-Cys-OH”, for which the “final purity (method not given)” value is “about 99%”.

As to “(cyclo)H-Cys-Phe-4Aph-2Nal-Lys-Thr-Phe-Cys-OH”, the “final purity (method not given)” value is “greater than 99%”.

In the case of “(cyclo)H-Cys-Phe-4Aph-D-Trp-Lys-Thr-Phe-Cys-OH”, the “final purity (method not given)” value was “about 98%”.

Turning to “(cyclo)H-Cys-Phe-4Aph-Trp-Lys-Thr-Phe-Cys-OH”, the “final purity (method not given)” value is “greater than 97%”.

Consider “(cyclo)H-Cys-Phe-4Aph-Trp-Lys-Thr-Tyr-Cys-OH”, for which the “final purity (method not given)” value is “greater than 97%”.

As to “(cyclo)H-Cys-Phe-Ala-D-Trp-Lys-Thr-Phe-Cys-OH”, the “final purity (method not given)” value is given as “greater than 93%”.

As for “(cyclo)H-Cys-Phe-Ala-Trp-Lys-Thr-Ala-Cys-OH”, the “final purity (method not given)” value is “greater than 98%”.

For “(cyclo)H-Cys-Phe-Ala-Trp-Lys-Thr-Phe-Cys-OH”, the “final purity (method not given)” value is on record as “about 98%”.

With “(cyclo)H-Cys-Phe-Tyr-threo-(2R,3S)C^βMe-2Nal-Lys-Thr-Phe-Cys-OH”, the “final purity (method not given)” value was “about 99%”.

Consider “(cyclo)H-Cys-Phe-Tyr-threo-(2S,3R)C^βMe-2Nal-Lys-Thr-Phe-Cys-OH”, for which the “final purity (method not given)” value is reported as “about 99%”.

With “(cyclo)H-D-Cys-Phe-Tyr-threo-(2R,3S)C^βMe-2Nal-Lys-Thr-Phe-Cys-OH”, the “final purity (method not given)” value is recorded as “greater than 95%”.

For the substance “(cyclo)H-D-Cys-Phe-Tyr-threo-(2S,3R)C^βMe-2Nal-Lys-Thr-Phe-Cys-OH”, the “final purity (method not given)” value is recorded as “greater than 95%”.

With “(cyclo)H-Tyr-Cys-Phe-4 Amp-Trp-Lys-Thr-Phe-Cys-OH”, the “final purity (method not given)” value is listed as “greater than 98%”.

As to “(cyclo)H-Tyr-Cys-Phe-4Aph-D-Trp-Lys-Thr-Phe-Cys-OH”, the “final purity (method not given)” value was “about 98%”.

Consider “(cyclo)H-Tyr-Cys-Phe-4Aph-Trp-Lys-Thr-Phe-Cys-OH”, for which the “final purity (method not given)” value is reported as “about 98%”.
